Laboratory results as given in publication PMC8931434.

Molecular target: T1, Ceramide synthase 2 (mouse) (UniProt Q924Z4)
T1 sequence: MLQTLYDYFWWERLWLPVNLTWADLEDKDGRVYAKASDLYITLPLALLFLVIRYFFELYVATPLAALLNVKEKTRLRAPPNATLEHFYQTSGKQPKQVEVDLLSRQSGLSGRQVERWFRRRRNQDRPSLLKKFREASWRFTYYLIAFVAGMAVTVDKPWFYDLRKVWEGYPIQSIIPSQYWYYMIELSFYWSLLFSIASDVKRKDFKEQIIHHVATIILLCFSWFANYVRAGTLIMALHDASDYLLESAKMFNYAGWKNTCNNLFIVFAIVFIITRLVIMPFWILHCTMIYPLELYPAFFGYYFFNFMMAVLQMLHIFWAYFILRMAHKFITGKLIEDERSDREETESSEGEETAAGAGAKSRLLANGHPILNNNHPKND
Experiment: affinity purification with mass spectrometry; rabbit anti-CerS2 antibody and protein A agarose on WT mouse liver homogenate (150 mM NaCl, 20 mM Hepes pH 7.5, 1% digitonin, 4 °C), LC-MS/MS, compared with CerS2 null mouse liver; three mice per group

Row | Binder | binding
1 | Maleylacetoacetate isomerase (protein, UniProt Q9WVL0 1-216) MQAGKPILYSYFRSSCSWRVRIALALKGIDYEIVPINLIKDGGQQFTEEFQTLNPMKQVPALKIDGITIVQSLAIMEYLEETRPIPRLLPQDPQKRAIVRMISDLIASGIQPLQNLSVLKQVGQENQMQWAQKVITSGFNALEKILQSTAGKYCVGDEVSMADVCLVPQVANAERFKVDLSPYPTISHINKELLALEVFQVSHPRRQPDTPAELRT | binds
2 | Hydroxymethylglutaryl-CoA synthase, mitochondrial (protein, UniProt P54869 38-508) TIPPAPLAKTDTWPKDVGILALEVYFPAQYVDQTDLEKFNNVEAGKYTVGLGQTRMGFCSVQEDINSLCLTVVQRLMERTKLPWDAVGRLEVGTETIIDKSKAVKTVLMELFQDSGNTDIEGIDTTNACYGGTASLFNAANWMESSYWDGRYALVVCGDIAVYPSGNARPTGGAGAVAMLIGPKAPLVLEQGLRGTHMENAYDFYKPNLASEYPLVDGKLSIQCYLRALDRCYAAYRKKIQNQWKQAGNNQPFTLDDVQYMIFHTPFCKMVQKSLARLMFNDFLSSSSDKQNNLYKGLEAFRGLKLEETYTNKDVDKALLKASLDMFNQKTKASLYLSTNNGNMYTSSLYGCLASLLSHHSAQELAGSRIGAFSYGSGLAASFFSFRVSKDASPGSPLEKLVSSVSDLPKRLDSRRRMSPEEFTEIMNQREQFYHKVNFSPPGDTSNLFPGTWYLERVDEMHRRKYARCPV | binds
3 | 3-ketoacyl-CoA thiolase, mitochondrial (protein, UniProt Q8BWT1 1-397) MALLRGVFIVAAKRTPFGAYGGLLKDFSATDLTEFAARAALSAGKVPPETIDSVIVGNVMQSSSDAAYLARHVGLRVGVPTETGALTLNRLCGSGFQSIVSGCQEICSKDAEVVLCGGTESMSQSPYCVRNVRFGTKFGLDLKLEDTLWAGLTDQHVKLPMGMTAENLAAKYNISREDCDRYALQSQQRWKAANEAGYFNEEMAPIEVKTKKGKQTMQVDEHARPQTTLEQLQKLPSVFKKDGTVTAGNASGVSDGAGAVIIASEDAVKKHNFTPLARVVGYFVSGCDPTIMGIGPVPAINGALKKAGLSLKDMDLIDVNEAFAPQFLSVQKALDLDPSKTNVSGGAIALGHPLGGSGSRITAHLVHELRRRGGKYAVGSACIGGGQGIALIIQNTA | binds
4 | Formimidoyltransferase-cyclodeaminase (protein, UniProt Q91XD4 1-541) MSQLVECVPNFSEGNNQEVIDAISRAISQTPGCVLLDVDAGPSTNRTVYTFVGQPECVVEGALHAARTASQLIDMSKHKGEHPRMGALDVCPFIPVRGVSMEECVLCAKAFGQRLAEELNVPVYLYGEAAQTPSRQTLPAIRAGEYEALPEKLKQAEWVPDFGPSSFVPSWGATVTGARKFLIAFNINLLSTKEQAHRIALNLREQGRGKDQPGRLKKVQGIGWYLEEKNLAQVSTNLLDFEVTALHTVFEEARREAQELNLPVVGSQLVGLVPLKALLDAAAFYCDKEKLFVLEEEHRIRLVVNRLGLDSLAPFDPKERIIEYLVPDSGPEQSLLDTSLRGFVREVGARSAAPGGGSVAAAVAALGAALASMVGQMTYGRRQFDHLDSTMRRLIPPFHAASAQLTSLVDADARAFAACLEAIKLPKNTPEERDRRACALQEGLRQAVAVPLKLAETVSQLWPALQELAHCGNLSCLSDLQVAAKALETGVFGAYFNVLINLKDMTDDVFKEKTHHRISSLLQEAKTQAALVLGSLEARKE | binds
5 | Carbonic anhydrase 3 (protein, UniProt P16015 1-260) MAKEWGYASHNGPDHWHELYPIAKGDNQSPIELHTKDIKHDPSLQPWSASYDPGSAKTILNNGKTCRVVFDDTYDRSMLRGGPLSGPYRLRQFHLHWGSSDDHGSEHTVDGVKYAAELHLVHWNPKYNTFGEALKQPDGIAVVGIFLKIGREKGEFQILLDALDKIKTKGKEAPFTHFDPSCLFPACRDYWTYHGSFTTPPCEECIVWLLLKEPMTVSSDQMAKLRSLFSSAENEPPVPLVGNWRPPQPVKGRVVRASFK | binds
6 | Cytochrome P450 2F2 (protein, UniProt P33267 1-491) MDGVSTAILLLLLAVISLSLTFSSRGKGQLPPGPKPLPILGNLLQLRSQDLLTSLTKLSKEYGSVFTVYLGSRPVIVLSGYQTVKEALVDKGEEFSGRGAYPVFFNFTRGNGIAFSDGERWKILRRFSVQILRNFGMGKRSIEERILEEGSFLLEVLRKMEGKPFDPVFILSRSVSNIICSVVFGSRFDYDDERLLTIIHFINDNFKIMSSPWGEMYNIFPSVLDWIPGPHKRLFRNFGGMKDLIARSVREHQDSLDPNSPRDFIDCFLTKMAQEKQDPLSHFNMDTLLMTTHNLLFGGTETVGTTLRHAFLILMKYPKVQARVQEEIDRVVGRSRMPTLEDRTSMPYTDAVIHEVQRFADVIPMNLPHRVTRDTPFRGFLIPKGTDVITLLNTVHYDSDQFKTPQEFNPEHFLDDNHSFKKSPAFMPFSAGRRLCLGEPLARMELFIYFTSILQNFTLQPLVDPEDIDLTPLSSGLGNLPRPFQLCMHIR | binds
7 | Betaine–homocysteine S-methyltransferase 1 (protein, UniProt O35490 1-407) MAPVAGKKAKKGILERLNAGEVVIGDGGFVFALEKRGYVKAGPWTPEAAVEHPEAVRQLHREFLRAGSNVMQTFTFYASEDKLENRGNYVAEKISGQKVNEAACDIARQVADEGDALVAGGVSQTPSYLSCKSEVEVKKIFRQQLEVFMKKNVDFLIAEYFEHVEEAVWAVEALKASGKPVAATMCIGPEGDLHGVPPGECAVRLVKAGASIVGVNCHFDPSVSLQTVKLMKEGLEAARLKAYLMSQPLAYHTPDCGKQGFIDLPEFPFGLEPRVATRWDIQKYAREAYNLGVRYIGGCCGFEPYHIRAIAEELAPERGFLPPASEKHGSWGSGLDMHTKPWIRARARKEYWQNLRIASGRPYNPSMSRPDAWGVTKGAAELMQQKEATTEQQLRELFEKQKFKSAQ | binds
8 | Peroxiredoxin-6 (protein, UniProt O08709 1-224) MPGGLLLGDEAPNFEANTTIGRIRFHDFLGDSWGILFSHPRDFTPVCTTELGRAAKLAPEFAKRNVKLIALSIDSVEDHLAWSKDINAYNGETPTEKLPFPIIDDKGRDLAILLGMLDPVEKDDNNMPVTARVVFIFGPDKKLKLSILYPATTGRNFDEILRVVDSLQLTGTKPVATPVDWKKGESVMVVPTLSEEEAKQCFPKGVFTKELPSGKKYLRYTPQP | binds

No constants are given. Whether binding was seen depends on the method and setting. Binding seen in cells or lysates may run through a third protein. Here binding means that the protein was enriched with, or labelled near, the bait; the list need not be complete.
